# This is one part of the list. Repeats are few or missing, and single values can be far off.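 The apoptosis fraction was the count of cleaved-PARP antibody-stained nuclei relative to all DNA-stained nuclei, imaged in 1,536-well plates. Screening doses were set so most cells survived, and baseline and induced cleaved-PARP levels vary greatly across cell lines.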
# How the values were obtained:
# Experiment in all cases: cleaved PARP positive nuclei fraction relative to DMSO control; melanoma cells; higher = more apoptosis
# Details in all cases: library dose: low library concentration; 72 h
# [1] = tested on: 501Mel
# [2] = tested on: A101D
# [3] = tested on: A2058
# [4] = tested on: A375
# [5] = tested on: C32
# [6] = tested on: CBRC008 (line from a melanoma biopsy)
# [7] = tested on: CBRC013 (line from a melanoma biopsy)
# [8] = tested on: CBRC014 (line from a melanoma biopsy)
# [9] = tested on: CBRC016 (line from a melanoma biopsy)
# [10] = tested on: CBRC017 (line from a melanoma biopsy)
SMILES,cleaved PARP positive nuclei fraction [1],cleaved PARP positive nuclei fraction [2],cleaved PARP positive nuclei fraction [3],cleaved PARP positive nuclei fraction [4],cleaved PARP positive nuclei fraction [5],cleaved PARP positive nuclei fraction [6],cleaved PARP positive nuclei fraction [7],cleaved PARP positive nuclei fraction [8],cleaved PARP positive nuclei fraction [9],cleaved PARP positive nuclei fraction [10]
"Cn1c(Nc2ccc(C(F)(F)F)cc2)nc2cc(Oc3ccnc(-c4ncc(C(F)(F)F)[nH]4)c3)ccc21 + CC1(C)NC(=O)N(c2ccc([N+](=O)[O-])c(C(F)(F)F)c2)C1=O [nilutamide] (first compound 0.08 µM, partner dose 1 µM)",268%,78.7%,391%,185%,31.4%,277%,82.7%,113%,21%,109%
"CC(=O)c1c(C)c2cnc(Nc3ccc(N4CCNCC4)cn3)nc2n(C2CCCC2)c1=O [palbociclib] + Cc1cc(N2CCOCC2)cc2[nH]c(-c3c(NC[C@@H](O)c4cccc(Cl)c4)cc[nH]c3=O)nc12 [BMS536924] (first compound 0.04 µM, partner dose 0.2 µM)",180%,219%,95.1%,477%,106%,84.6%,73.5%,120%,127%,143%
"OCCn1cc(-c2cnc3nnn(Cc4ccc5ncccc5c4)c3n2)cn1 + O=C(Nc1cccc(Cl)c1)Nc1ncc(CCNc2ncnc3ccsc23)s1 [SNS314] (first compound 1 µM, partner dose 0.0008 µM)",370%,33.4%,90%,41.9%,105%,33.6%,81.7%,71.8%,27%,70%
"Cc1cc(N2CCOCC2)cc2[nH]c(-c3c(NC[C@@H](O)c4cccc(Cl)c4)cc[nH]c3=O)nc12 + Cn1cncc1[C@@](N)(c1ccc(Cl)cc1)c1ccc2c(c1)c(-c1cccc(Cl)c1)cc(=O)n2C [tipifarnib] (first compound 0.2 µM, partner dose 0.01 µM)",109%,173%,214%,435%,130%,290%,96.7%,99.7%,106%,121%
"COc1cc(Nc2ncc(F)c(Nc3ccc4c(n3)NC(=O)C(C)(C)O4)n2)cc(OC)c1OC [Tamatinib] + C[C@@H]1CCN(C(=O)CC#N)C[C@@H]1N(C)c1ncnc2[nH]ccc12 [CP690550] (first compound 0.4 µM, partner dose 1 µM)",77.9%,109%,212%,242%,59.1%,244%,101%,81.2%,126%,85.5%
"CO[C@@H]1[C@H](N(C)C(=O)c2ccccc2)C[C@H]2O[C@]1(C)n1c3ccccc3c3c4c(c5c6ccccc6n2c5c31)C(=O)NC4 [Midostaurin] + CC(C)(C)c1cnc(CSc2cnc(NC(=O)C3CCNCC3)s2)o1 [SNS-032] (first compound 0.08 µM, partner dose 0.01 µM)",80.8%,90.9%,56.5%,56.5%,250%,59.1%,137%,92.4%,211%,77.6%
"OCc1c[nH]c2ccccc12 [Indole-3-carbinol] + CC(C)(C)c1cnc(CSc2cnc(NC(=O)C3CCNCC3)s2)o1 [SNS-032] (first compound 0.8 µM, partner dose 0.01 µM)",192%,81.6%,115%,325%,163%,148%,77.1%,399%,36.7%,53.6%
"C=CCn1c(=O)c2cnc(Nc3ccc(N4CCN(C)CC4)cc3)nc2n1-c1cccc(C(C)(C)O)n1 + NC(=O)Nc1cc(-c2cccc(F)c2)sc1C(=O)N[C@H]1CCCNC1 [AZD7762] (first compound 0.02 µM, partner dose 0.02 µM)",101%,51.7%,188%,2470%,218%,105%,354%,217%,209%,73.1%
"Cn1c(Nc2ccc(C(F)(F)F)cc2)nc2cc(Oc3ccnc(-c4ncc(C(F)(F)F)[nH]4)c3)ccc21 + CN(C)S(=O)(=O)c1ccc2c(c1)/C(=C/c1cc3c([nH]1)CCCC3)C(=O)N2 [SU6656] (first compound 0.08 µM, partner dose 0.4 µM)",145%,139%,160%,90.7%,143%,112%,112%,123%,121%,134%
"Cn1nnc2c(C(N)=O)ncn2c1=O [temozolomide] + Cn1cncc1[C@@](N)(c1ccc(Cl)cc1)c1ccc2c(c1)c(-c1cccc(Cl)c1)cc(=O)n2C [tipifarnib] (first compound 2 µM, partner dose 0.01 µM)",88.3%,91.1%,190%,191%,59.2%,140%,108%,106%,99.2%,112%
"C[C@]1(c2nc3c(C(N)=O)cccc3[nH]2)CCCN1 [Veliparib] + OCCn1cc(-c2cnc3nnn(Cc4ccc5ncccc5c4)c3n2)cn1 [PF04217903] (first compound 1.4 µM, partner dose 1 µM)",129%,160%,107%,150%,90.2%,47.6%,146%,99.7%,187%,101%
"Cc1nc(Nc2ncc(C(=O)Nc3c(C)cccc3Cl)s2)cc(N2CCN(CCO)CC2)n1 [dasatanib] + COc1cc(Nc2ncc(F)c(Nc3ccc4c(n3)NC(=O)C(C)(C)O4)n2)cc(OC)c1OC [Tamatinib] (first compound 0.004 µM, partner dose 0.4 µM)",328%,94.4%,84.2%,124%,335%,241%,77.5%,99.5%,103%,94.9%
"Cn1c(Nc2ccc(C(F)(F)F)cc2)nc2cc(Oc3ccnc(-c4ncc(C(F)(F)F)[nH]4)c3)ccc21 + Cc1cc(N2CCOCC2)cc2[nH]c(-c3c(NC[C@@H](O)c4cccc(Cl)c4)cc[nH]c3=O)nc12 [BMS536924] (first compound 0.08 µM, partner dose 0.2 µM)",363%,125%,113%,95.6%,51.6%,203%,72.7%,117%,252%,87.1%
"CC1(C)NC(=O)N(c2ccc([N+](=O)[O-])c(C(F)(F)F)c2)C1=O [nilutamide] + CN(NC(=O)CC(=O)NN(C)C(=S)c1ccccc1)C(=S)c1ccccc1 [STA4783] (first compound 1 µM, partner dose 0.006 µM)",252%,188%,99.8%,4410%,180%,1450%,142%,684%,189%,113%
"C[C@]1(c2nc3c(C(N)=O)cccc3[nH]2)CCCN1 [Veliparib] + C[C@@H]1CCN(C(=O)CC#N)C[C@@H]1N(C)c1ncnc2[nH]ccc12 [CP690550] (first compound 1.4 µM, partner dose 1 µM)",82.2%,46.2%,122%,138%,139%,97.6%,128%,218%,60.9%,194%
"C=CCn1c(=O)c2cnc(Nc3ccc(N4CCN(C)CC4)cc3)nc2n1-c1cccc(C(C)(C)O)n1 + O=C(Nc1cccc(Cl)c1)Nc1ncc(CCNc2ncnc3ccsc23)s1 [SNS314] (first compound 0.02 µM, partner dose 0.0008 µM)",172%,49.7%,107%,228%,137%,71.9%,110%,119%,58.8%,100%
"Cc1nc(Nc2ncc(C(=O)Nc3c(C)cccc3Cl)s2)cc(N2CCN(CCO)CC2)n1 [dasatanib] + Cc1ccc(NC(=O)c2cccc(N(C)C)c2)cc1NC(=O)c1ccc(O)cc1 [ZM336372] (first compound 0.004 µM, partner dose 2 µM)",92.8%,92.3%,225%,67.5%,217%,108%,98.8%,102%,62.8%,118%
"C[C@]1(c2nc3c(C(N)=O)cccc3[nH]2)CCCN1 [Veliparib] + CC(C)(C)c1cnc(CSc2cnc(NC(=O)C3CCNCC3)s2)o1 [SNS-032] (first compound 1.4 µM, partner dose 0.01 µM)",113%,93.2%,111%,38.9%,196%,102%,108%,77.9%,105%,294%
"NC(=O)Nc1cc(-c2cccc(F)c2)sc1C(=O)N[C@H]1CCCNC1 + Cn1cncc1[C@@](N)(c1ccc(Cl)cc1)c1ccc2c(c1)c(-c1cccc(Cl)c1)cc(=O)n2C [tipifarnib] (first compound 0.02 µM, partner dose 0.01 µM)",52.4%,179%,74.2%,626%,169%,171%,88.8%,110%,234%,99.1%
"Cn1nnc2c(C(N)=O)ncn2c1=O [temozolomide] + CC(C)(C)c1cnc(CSc2cnc(NC(=O)C3CCNCC3)s2)o1 [SNS-032] (first compound 2 µM, partner dose 0.01 µM)",84.4%,86.4%,219%,104%,53.1%,141%,97.4%,84.2%,62.1%,97.6%
"C#Cc1cccc(Nc2ncnc3cc(OCCOC)c(OCCOC)cc23)c1 [erlotinib] + CN(C)S(=O)(=O)c1ccc2c(c1)/C(=C/c1cc3c([nH]1)CCCC3)C(=O)N2 [SU6656] (first compound 0.8 µM, partner dose 0.4 µM)",428%,105%,96.9%,81.9%,187%,41.6%,128%,67.7%,75.3%,131%
"COCC[n+]1c2c(n(Cc3cnccn3)c1C)C(=O)c1ccccc1C2=O + CC1(C)NC(=O)N(c2ccc([N+](=O)[O-])c(C(F)(F)F)c2)C1=O [nilutamide] (first compound 0.0004 µM, partner dose 1 µM)",263%,94.8%,137%,62.5%,105%,1730%,97.2%,70.9%,78.4%,84.5%

# Source: the supplement of paper PMC4604168 (melanoma cell lines)
